According to PMC8316347:
Results are given in words; binding and its absence hold for the method and conditions named. For part of these data: In cells and extracts the contact can be indirect. Some binding calls cover weakened binding; strength is not graded here. Tags and fused reporters may be left off the sequences shown.

Sequences of proteins named here, by UniProt entry; tags and fusion partners are left off. A change or cut given only in a name is not applied to a line headed by its entry. A line that says so, or that is headed by a name, gives the form on record, which may keep a tag or linker. Residues count along the entry.
human Wnt3a-10xhis wild type (BacMam-Wnt3A-10xhis plasmid) expressed in HeLa cells (P56704, residues 19-352): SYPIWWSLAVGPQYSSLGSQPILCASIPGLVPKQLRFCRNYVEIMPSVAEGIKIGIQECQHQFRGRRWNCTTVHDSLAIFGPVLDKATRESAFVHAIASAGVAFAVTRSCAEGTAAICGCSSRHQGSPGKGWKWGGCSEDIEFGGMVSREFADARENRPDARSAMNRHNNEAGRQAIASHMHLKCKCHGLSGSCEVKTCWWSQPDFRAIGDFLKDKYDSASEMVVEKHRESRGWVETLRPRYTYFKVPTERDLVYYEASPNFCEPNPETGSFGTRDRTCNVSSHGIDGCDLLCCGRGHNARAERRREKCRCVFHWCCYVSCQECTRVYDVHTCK
human Wnt3a K215A/W218A mutant (Hairpin-1), 10xhis, expressed in HeLa cells (P56704, form named): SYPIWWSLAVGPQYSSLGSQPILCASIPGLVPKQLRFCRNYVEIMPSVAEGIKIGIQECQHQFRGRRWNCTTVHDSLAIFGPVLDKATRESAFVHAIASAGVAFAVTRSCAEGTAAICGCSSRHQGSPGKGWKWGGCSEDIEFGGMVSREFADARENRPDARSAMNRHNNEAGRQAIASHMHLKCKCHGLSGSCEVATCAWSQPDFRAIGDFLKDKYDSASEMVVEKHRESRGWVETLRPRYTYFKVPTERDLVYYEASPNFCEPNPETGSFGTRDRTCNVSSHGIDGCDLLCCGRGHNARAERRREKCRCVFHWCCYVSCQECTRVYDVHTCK
human Wnt3a S209A mutant, co-expressed with WLS and purified (P56704, form named): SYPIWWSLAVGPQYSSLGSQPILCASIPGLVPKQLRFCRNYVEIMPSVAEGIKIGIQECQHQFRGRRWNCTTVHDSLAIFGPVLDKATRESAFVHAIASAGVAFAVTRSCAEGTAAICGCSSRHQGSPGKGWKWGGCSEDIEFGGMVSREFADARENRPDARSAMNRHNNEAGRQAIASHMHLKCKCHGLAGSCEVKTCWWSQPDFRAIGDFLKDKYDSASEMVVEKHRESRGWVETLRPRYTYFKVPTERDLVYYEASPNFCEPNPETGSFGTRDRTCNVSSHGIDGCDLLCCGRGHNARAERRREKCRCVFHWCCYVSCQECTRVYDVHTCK
human Wnt3a W333A mutant (Hairpin-2), 10xhis, expressed in HeLa cells (P56704, form named): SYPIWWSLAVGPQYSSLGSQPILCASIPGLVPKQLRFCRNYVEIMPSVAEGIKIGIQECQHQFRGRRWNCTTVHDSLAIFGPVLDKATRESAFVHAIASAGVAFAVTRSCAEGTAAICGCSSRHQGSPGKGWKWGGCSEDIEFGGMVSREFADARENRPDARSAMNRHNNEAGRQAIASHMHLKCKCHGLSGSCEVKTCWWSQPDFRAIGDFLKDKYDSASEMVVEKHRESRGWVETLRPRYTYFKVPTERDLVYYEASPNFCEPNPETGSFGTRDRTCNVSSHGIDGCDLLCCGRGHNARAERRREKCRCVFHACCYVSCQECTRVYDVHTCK

Legend:
[1] = molecular target: T1, human WLS-Flag (BacMam-WLS-Flag plasmid) expressed in HeLa cells (human) (UniProt Q5T9L3); assay: co-IP; HeLa cells co-transfected with BacMam-Wnt3A-10xhis and BacMam-WLS-Flag (total 1 µg at 1:1, total 2.5 µg at 1:1, or total 2.5 µg at 4:1 Wnt3a:WLS DNA); lysis in 25 mM Tris-HCl pH 8.0, 150 mM NaCl, 1% Triton X-100; anti-Flag resin; washes with 300 mM NaCl, 0.1% Triton X-100; western blotting with anti-Wnt3a and anti-WLS
T1 sequence: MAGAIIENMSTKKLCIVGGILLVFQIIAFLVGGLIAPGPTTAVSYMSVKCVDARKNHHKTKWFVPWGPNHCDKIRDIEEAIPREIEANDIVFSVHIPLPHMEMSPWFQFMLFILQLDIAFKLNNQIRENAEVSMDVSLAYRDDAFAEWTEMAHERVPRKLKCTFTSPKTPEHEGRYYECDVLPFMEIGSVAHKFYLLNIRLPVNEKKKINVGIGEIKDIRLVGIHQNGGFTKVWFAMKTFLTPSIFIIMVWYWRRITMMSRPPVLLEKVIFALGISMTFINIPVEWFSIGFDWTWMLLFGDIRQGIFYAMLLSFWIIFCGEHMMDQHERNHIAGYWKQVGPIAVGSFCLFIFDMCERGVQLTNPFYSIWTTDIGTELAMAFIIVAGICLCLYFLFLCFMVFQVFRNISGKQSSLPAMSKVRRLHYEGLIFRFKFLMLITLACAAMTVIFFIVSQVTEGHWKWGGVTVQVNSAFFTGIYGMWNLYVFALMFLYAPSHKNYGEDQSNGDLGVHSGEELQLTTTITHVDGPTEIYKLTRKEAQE

[2] = molecular target: T2, human Wntless (WLS), C-terminal Flag tag, co-expressed with Wnt3a in HEK293S GnTI- cells (human) (UniProt Q5T9L3); assay: SEC; Wnt3a S209A co-expressed with WLS, complex purified and run on gel filtration; both purified
T2 sequence: T1 sequence

[3] = molecular target: T2, human Wntless (WLS), C-terminal Flag tag, co-expressed with Wnt3a in HEK293S GnTI- cells (human); assay: cryo-EM structure; WLS-Wnt3a complex co-expressed and purified, 0.19 mg/ml, in 25 mM Tris pH 8.0, 150 mM NaCl, 0.03% GDN; graphene oxide coated grids; Titan Krios 300 kV; both purified

Row | Substance | binding [1] | further results
1 | human Wnt3a K215A/W218A mutant (Hairpin-1), 10xhis, expressed in HeLa cells (from UniProt P56704 19-352) (ligand) | binds weakly | –
2 | human Wnt3a S209A mutant (Hairpin-1, palmitoleoylation site), 10xhis, expressed in HeLa cells (from UniProt P56704 19-352) (ligand) | binds | –
3 | human Wnt3a S209A mutant, co-expressed with WLS and purified (from UniProt P56704 19-352) (ligand) | – | binding [2]: binds
4 | human Wnt3a W333A mutant (Hairpin-2), 10xhis, expressed in HeLa cells (from UniProt P56704 19-352) (ligand) | binds | –
5 | human Wnt3a, C-terminal 10xhis tag, co-expressed with WLS in HEK293S GnTI- cells (from UniProt P56704 19-352) (ligand) | – | binding [3]: binds
6 | human Wnt3a-10xhis wild type (BacMam-Wnt3A-10xhis plasmid) expressed in HeLa cells (from UniProt P56704 19-352) (ligand) | binds | –
